## Primary screen of a compound library

Measurements from “University of Dundee, Small-Polar-MMV Screening Library” (2021), ChEMBL document CHEMBL3988442.

A: 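Phenotypic screen: M. tuberculosis growth, cholesterol and DPPC medium, 4 days; the read-out is not stated. Concentration: 50 µM. Direction is inferred from retests: higher values go with more growth inhibition. Of about 69,000 compounds tested this way, about 370 (0.54%) reached 50% or more in at least one test.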
B: 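Growth of Mycobacterium tuberculosis over 3 days (7H9 medium with glucose and tyloxapol); the read-out is not stated. Concentration: 50 µM. The record gives no direction; compounds that gave an IC50 in retests scored well above the rest, so higher reads as more growth inhibition. Size under these conditions: about 69,000 compounds, about 760 of them at 50% or above in at least one test.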

Each number is a percent effect as filed.
The controls that fix the scale are not given in the record; negative values are as filed.
This is an unselected part of the compounds tested.
Two or more numbers in one place are separate tests of the same structure; such repeats can differ widely.

SMILES,A,B
Cc1cc(-c2cnn(CCNC(=O)CCn3cccn3)c2C2CC2)on1,-9.08,4.913
[H][C@]12CCN[C@@]1([H])CN(C(=O)Cc1ccc(F)cc1)C2,18.62,-11.49
CN(C)C(C(=O)N1CCN(CCn2cccc2)CC1)c1cccc(F)c1 (centres unmarked),-5.128,3.042 and -28.72
COCCN(Cc1ccoc1)S(=O)(=O)c1ccc(F)c(C)c1,7.343,20.17
CCOC(=O)C(CO)NC(=O)CCc1cccc(OC2CCCC2)c1 (centres unmarked),-4.608,-10.65
CC(C)CCCNC(=O)Nc1ccc(F)c(C(N)=O)c1,9.75,2.616
CC(=O)Nc1nc(CN2CCOC(Cn3cccn3)C2)cs1 (centres unmarked),9.853,-11.07
CCn1cnnc1CCNC(=O)C(C)(C)c1cccc(Cl)c1,15.51,3.116
[H][C@@]12CCCCCN(C(C)=O)[C@@]1([H])[C@H](c1cccc(F)c1)CN2C(C)=O,5.731 and -9.227,-5.423
CN(C)CC1(O)CCCN(C(=O)CCc2nc3cccnc3n2C)C1 (centres unmarked),33.32,-17.02
Cc1csc(C2(NCCC(=O)N3CCOCC3)CCCC2)n1,-12.95,-36.16 and -7.592
Cc1nnc(C2CCN(C(=O)c3cnc4ccccc4n3)CC2)s1,-11.95,-7.987 and -28.88
CCOCCn1nc(C)cc1C(=O)N1CC[C@](C)(O)C(C)(C)C1,14.88 and 6.565,13.62
CN(Cc1ccccn1)C1CC2(CCN(Cc3cccnc3)CC2)C1.O=C(O)C(F)(F)F.O=C(O)C(F)(F)F.O=C(O)C(F)(F)F,-26.39,2.645
COCC1CN(C(=O)Cc2ccsc2)Cc2c1cnn2C (centres unmarked),-20.71 and -14.75,10.82
CN1C(=O)CC(c2cnn(C)c2)C12CCN(C(=O)c1ccco1)CC2 (centres unmarked),-18.12,6.343
c1cnnc(N2CCCC(NCc3nc(-c4ccsc4)no3)C2)c1 (centres unmarked),-23.76,17.58 and -1.221
CCCN1CCCC2(CCN(c3nccc(OC)n3)C2)C1=O (centres unmarked),9.41,26.74
CSCc1noc(-c2ccc(C)c(N3CCNC3=O)c2)n1,-2.294,-7.337
CNC(=O)C1CCCCN1C(=O)c1sc(-c2ccc(C)o2)nc1C (centres unmarked),-21.39,4.646 and -26.2
O=C(NCCc1cc(F)ccc1F)NC(CO)c1ccccc1 (centres unmarked),-9.23 and -12.97,-13.19
CCc1nc(CN2CCCN(CC(=O)Nc3cccnc3)CC2)no1,-10.76,-33.57
Cc1cccc(CN(Cc2ccccn2)S(=O)(=O)N(C)C)c1,-6.322,2.633 and -33.69
CC(C)CN1CCC(NC(=O)N(C)Cc2csc3ccccc23)CC1,4.641,21.52 and 8.897
CNC(=O)c1ccc(C(=O)N2CCCC2c2cnn(C)c2)cn1 (centres unmarked),-1.886,10.96
COc1ccc(CNC(=O)c2cc3c(nc2O)CCC(C)C3)cc1 (centres unmarked),11.67 and -6.065,7.674
COc1ccc(C(=O)NC2CCN(c3ncccn3)CC2)cc1F,-4.008,2.617 and -3.413
CN(C)c1cc2c(nn1)CCN(C(=O)Cc1ccc3c(c1)CCO3)C2,-8.971,5.215
Cc1nc(NC(=O)CN2C(=O)c3ccccc3NC2C(C)C)sc1C (centres unmarked),-25.41,-12.43
Cl.c1nn(C2CCCCC2)cc1-c1cncn1CCCN1CCCCC1,-29 and -18.88,-22.12
[H][C@@]12COC[C@]1([H])[C@@H](OCc1cccnc1)CN2C(=O)c1ccc[nH]1,5.102 and -0.327,16.31
OC(CN(Cc1ccccc1)Cc1cccnc1)c1cccs1 (centres unmarked),-23.81,6.57
CCn1ccc(NC(=O)CN2C(=O)C(C)(C)c3ccccc32)n1,-27.22,1.397
CCc1nc(C(=O)N2CCN(CC)CC2)nn1-c1ccccc1Cl,-18.84,3.465
CCN1CC(CN(C)Cc2nc(-c3cccc(C)c3)oc2C)CC1=O (centres unmarked),-15.06,-3.718
COc1ccccc1NC(=O)CC(C)NCc1scnc1C (centres unmarked),6.812,5.063 and -0.5503
Cc1cc(NC(=O)C(C)N2CCCN(c3nccs3)CC2)on1 (centres unmarked),21.94,13.42
c1ccc(SCCN2CCN(CCn3cncn3)CC2)cc1,-16.29 and -2.693,-22.59
O=C(Cc1ccc2c(c1)CCC2)N1CCCC1Cn1cccn1 (centres unmarked),-1.296,24.82
Cc1cc(C2CCCN(Cc3ncc(C(C)C)o3)C2)n[nH]1 (centres unmarked),6.594 and 6.817,22.7
O=C1CC2(CCSC2)C(=O)N1CCCc1ccccc1 (centres unmarked),12.2,31.54 and 14.48
CC(=O)Nc1cccc(OCCNC(=O)N(C)Cc2ccccc2)c1,-6.276 and -9.33,6.425

Some entries from above, unchanged:

{"smiles": "Cl.c1nn(C2CCCCC2)cc1-c1cncn1CCCN1CCCCC1", "A": "-29 and -18.88", "B": -22.12}
{"smiles": "CCOC(=O)C(CO)NC(=O)CCc1cccc(OC2CCCC2)c1", "stereo": "centres unmarked", "A": -4.608, "B": -10.65}
{"smiles": "COc1ccc(CNC(=O)c2cc3c(nc2O)CCC(C)C3)cc1", "stereo": "centres unmarked", "A": "11.67 and -6.065", "B": 7.674}
{"smiles": "Cc1nc(NC(=O)CN2C(=O)c3ccccc3NC2C(C)C)sc1C", "stereo": "centres unmarked", "A": -25.41, "B": -12.43}